Measured values taken from PubChem BioAssay AID493014 (National Center for Advancing Translational Sciences (NCATS), 2011).
In all, about 340,000 compounds went through this assay and about 170 (0.05%) were called active. Inconclusive results, whose numbers are uncertain, are shown with a selection of clear calls. Calls come from the whole dose curve; as a rule, active = well fitted inhibition curve with a large enough effect in the signal ratio, with a control signal flat (not every such curve was filed as active); inconclusive = small, poorly fitted or top-dose-only effect, or effect the other way, or a change in a side signal; inactive = flat fitted curve, though single readings scatter; the % refers to the signal ratio. Potencies of inconclusive entries are doubtful fits and often do not repeat.
Potency is the fitted concentration of half-maximal effect.

Test: qHTS Assay to Find Inhibitors of Chronic Active B-Cell Receptor Signaling;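 for activity change, negative = inhibition: plate controls were basal doxycycline-induced cells for no effect and cells given 10 µM MG132 for full effect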
Conditions: ABC-DLBCL IkBa-CBG/CBR reporter, luminescence ratio (green luciferase fused to IkBa over red control in TMD8 lymphoma cells), 4 h; activity change, negative = inhibition: at 46.1 µM (top of the series)
Outline: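 TMD8 ABC-DLBCL cells carrying doxycycline-inducible green luciferase fused to IkappaBalpha plus unfused red luciferase were exposed to compounds (up to 46 uM) for 4 hrs at 37C. Activity came from the overlap-corrected green/red luminescence ratio.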
In the case of Cc1ccc(-c2cc(=O)c3ccccc3[nH]2)cc1, the “activity change, negative = inhibition” value is reported as inactive: -1.36%. With COC(=O)CN(C#N)c1nc(SC)nc(N(C)C)n1 the activity change, negative = inhibition was inconclusive: -11.1%. For COc1ccc(Cn2c(=S)[nH]c3ccccc32)cc1, the “activity change, negative = inhibition” value was inactive: -12.5%. With O=C(Nc1ccc(N2CCOCC2)cc1)C1(c2ccc(Cl)cc2)CCC1 the “activity change, negative = inhibition” value was inactive: -0.816%. For Cc1cc(OCCCC(=O)Nc2cccc(-n3cnnn3)c2)ccc1Cl, the “activity change, negative = inhibition” value was inactive: 11.8%. In the case of Cc1ccc2c(c1)c1c(n2CC(O)CNC(C)(C)C)CCCC1 (stereo unspecified), the Potency is reported as inconclusive: 35.5 µM [falling, partial curve, poor fit]. For CCC(C)Nc1nc(N)c([N+](=O)[O-])c(N2CCCCCC2)n1 (stereo unspecified), the “activity change, negative = inhibition” value was inactive: 1.89%. In the case of O=C(COC(=O)C12CC3CC(CC(Br)(C3)C1)C2)Nc1cccc(S(=O)(=O)N2CCOCC2)c1, the Potency is reported as inconclusive: 29.1 µM [falling, single point]. For CN1C(=O)c2ccccc2C(C(=O)NCCCN2CCCC2)C1c1c[nH]c2ccccc12 (stereo unspecified), the Potency was inconclusive: 1.46 µM [rising, partial curve, poor fit]. With O=C(NNC(=O)c1ccncc1)c1ccccc1 the activity change, negative = inhibition was inconclusive: -12.4%. With COc1cccc(C(=O)NC2CCCN(C3Cc4ccccc4C3)C2)c1OC (stereo unspecified) the “activity change, negative = inhibition” value was inactive: -3.16%. For COc1ccc(CN2CCSCC2)c(OC)c1C, the activity change, negative = inhibition was inconclusive: 2.03%. For Cn1cccc1C(=O)NC1CCCCCC1, the Potency was inconclusive: 25.9 µM [falling, partial curve, poor fit]. With Cc1c(Cl)cccc1NC(=S)NCCC(c1ccccc1)c1ccccc1 the activity change, negative = inhibition was inconclusive: -0.123%. With O=C(c1ccccc1)c1sc(N2CCCCCC2)nc1-c1ccccc1 the activity change, negative = inhibition was inconclusive: 10.1%. For COc1ccc(C(=O)Nc2ccc3oc(-c4cccc(F)c4)nc3c2)cc1OC, the “activity change, negative = inhibition” value was inactive: 16.7%. In the case of Cc1nnc(N/N=C/c2ccc(-c3ccc(Br)cc3)o2)n1N, the activity change, negative = inhibition is reported as inconclusive: -0.275%. With COC(=O)[C@H](CCSC)NC(=O)N1CCN(c2cccc(C(F)(F)F)c2)CC1 the “activity change, negative = inhibition” value was inactive: -4.79%. In the case of COc1ccc(C2(C(=O)Nc3ccc(C)cc3)CCOCC2)cc1, the activity change, negative = inhibition is reported as inconclusive: 8.31%. With Cc1nnc(SCC(=O)Nc2nccs2)n(N)c1=O the activity change, negative = inhibition was inconclusive: 18.5%. In the case of CC(C)C(=O)N1CCN(c2nc(-c3ccc(Cl)cc3)cs2)CC1, the activity change, negative = inhibition is reported as inconclusive: -11.8%. For O=C(NCCc1ccc(Cl)cc1)C(=O)NCC(c1ccco1)S(=O)(=O)c1ccc(Cl)cc1 (stereo unspecified), the Potency was inconclusive: 0.112 µM [falling, full curve, poor fit]. With COc1ccc(Cl)cc1C(=O)Nc1nc2ccc(S(C)(=O)=O)cc2s1 the activity change, negative = inhibition was inconclusive: 5.87%. For COc1cc(CN2CCCC(C(=O)c3ccc4c5c(cccc35)CC4)C2)cc(OC)c1O (stereo unspecified), the “activity change, negative = inhibition” value was inactive: -28.2%. With C=CCn1c(SCc2c(F)cccc2Cl)nnc1-c1ccco1 the “activity change, negative = inhibition” value was inactive: -7.36%. With Cc1ccnc(NC(=O)c2ccc(OCC3CCCO3)cc2)c1 (stereo unspecified) the Potency was inconclusive: 20.6 µM [falling, single point]. With CCC(C(=O)OC)n1cnc2c(oc3ccccc32)c1=O (stereo unspecified) the activity change, negative = inhibition was inconclusive: 7.75%. In the case of Cc1cnc(NC(=O)c2cc3ccccc3o2)s1, the Potency is reported as inconclusive: 31.6 µM [rising, single point]. For CCOc1ccc(CN(C(=O)c2cc(=O)c3cc(C)cc(C)c3o2)C2CCS(=O)(=O)C2)cc1 (stereo unspecified), the “activity change, negative = inhibition” value was inactive: 0.0674%. In the case of O=C(CN1CC[n+]2c(-c3cccs3)csc21)c1ccc(Br)cc1, the activity change, negative = inhibition is reported as inconclusive: -12.1%. For CCCCn1c(N)c(S(=O)(=O)c2ccc(C)cc2)c2nc3ccccc3nc21, the activity change, negative = inhibition was inconclusive: 11.7%. For COc1cc(-c2ccccc2)nc(N)n1, the Potency was inconclusive: 3.66 µM [rising, single point]. For COc1ccccc1N(CC(=O)Nc1ccc2c(c1)OCO2)S(=O)(=O)c1ccccc1, the activity change, negative = inhibition was inconclusive: 4.33%. For CN(C)S(=O)(=O)c1ccc(Cl)c(C(=O)OCC(=O)NC(=O)c2cccn2C)c1, the Potency was inconclusive: 3.66 µM [falling, partial curve, poor fit]. For COc1ccc(CNC(=O)C2CCN(S(=O)(=O)c3ccc4c(c3)CC(C)N4C(=O)C3CC3)CC2)cc1 (stereo unspecified), the activity change, negative = inhibition was inconclusive: 3.27%. For CC[C@H](C)C(N)c1cn([C@@H](CC(N)=O)C(=O)N2CCNCC2)nn1 (stereo partly specified), the “activity change, negative = inhibition” value was inactive: -0.67%. In the case of Cc1ccc(-n2ncc3c(=O)n(Cc4ccccn4)cnc32)cc1C, the activity change, negative = inhibition is reported as inconclusive: -1.13%. In the case of O=c1c(/C=N/OCc2ccc(Cl)cc2Cl)c[nH]n1-c1cccc(Cl)n1, the Potency is reported as inconclusive: 35.5 µM [falling, single point]. With CCCOc1ccc(OCCN2CCCC(C)C2)cc1 (stereo unspecified) the activity change, negative = inhibition was inconclusive: 4.95%. For COc1ccc(-c2cc(C(=O)N3CCCC3)no2)cc1, the Potency was inconclusive: 35.5 µM [rising, partial curve]. For Cc1cccc(N2CCN(C(=O)CC(NC(=O)c3ccccc3)c3ccccc3)CC2C)c1 (stereo unspecified), the activity change, negative = inhibition was inconclusive: 6.5%. For CCN(CC)c1cc(Oc2ccccc2)ncn1, the activity change, negative = inhibition was inconclusive: -0.516%. With COc1ccc(N(C(=O)/C=C\C(=O)Nc2ccc(C)cc2)C(C(=O)NCc2ccco2)c2ccc(C)cc2)cc1 (stereo unspecified) the “activity change, negative = inhibition” value was inactive: -9.44%. For O=C(c1ccco1)N1CCN(c2ccc([N+](=O)[O-])cc2F)CC1, the activity change, negative = inhibition was inconclusive: 5.46%. In the case of Cc1cc(NC(=O)c2cc([N+](=O)[O-])ccc2Cl)no1, the activity change, negative = inhibition is reported as inconclusive: -11.4%. With CC(C)N1C2OC(C3OC4C(O3)N(C(C)C)S(=O)(=O)N4C(C)C)OC2N(C(C)C)S1(=O)=O (stereo unspecified) the activity change, negative = inhibition was inconclusive: 19.9%. For O=C(COC(=O)c1cccc(S(=O)(=O)N2CCCC2)c1)Nc1ccccc1C(F)(F)F, the “activity change, negative = inhibition” value was inactive: 2.33%. With Cc1cc(C)nc(NC(N)=NCCc2c[nH]c3ccccc23)n1 the Potency was inconclusive: 22.4 µM [falling, single point]. With Cc1cc(NC(=O)/C=C/c2ccccc2Cl)n(-c2nc3ccccc3[nH]2)n1 the activity change, negative = inhibition was inconclusive: -17.6%. In the case of COc1ccccc1CNC(=O)C1(NC(=O)Nc2ccc(C)cc2)CCCCC1, the activity change, negative = inhibition is reported as inconclusive: 0.277%. In the case of CCCC(c1nnnn1CS(=O)(=O)c1ccc(C)cc1)N1CCN(CC)CC1 (stereo unspecified), the activity change, negative = inhibition is reported as inconclusive: 2.44%. For O=C(NNC(=S)Nc1ccccc1)c1cccnc1, the Potency was inconclusive: 31.6 µM [falling, single point]. In the case of Cn1c(=O)c2c(-c3ccccc3)n(-n3cnnc3)cc2n(C)c1=O, the activity change, negative = inhibition is reported as inconclusive: -4.27%. In the case of O=C1NC(=O)/C(=C\c2ccc(O)cc2O)S1, the Potency is reported as inconclusive: 31.6 µM [falling, partial curve]. With O=c1[nH]c(CN2CCN(Cc3ccc4c(c3)OCO4)CC2)nc2sc3c(c12)CCC3 the activity change, negative = inhibition was inconclusive: -1.79%. For COCc1cc(C)nc(N/N=C/c2ccc(-c3ccc(C(=O)O)c(Cl)c3)o2)c1C#N, the activity change, negative = inhibition was inconclusive: 18.4%. In the case of O=c1c2c3c(sc2n2cnnc2n1C1CCCCC1)CCC3, the activity change, negative = inhibition is reported as inconclusive: 4.26%. With Cc1ccc(C2=Nc3ccccc3N=C(C(Cl)Cl)C2)cc1 the Potency was inconclusive: 31.6 µM [falling, single point]. In the case of CCCCc1ncc(CN2CCN(Cc3ccc(C)cc3)C(CCO)C2)[nH]1 (stereo unspecified), the Potency is reported as inconclusive: 11.2 µM [falling, partial curve, poor fit]. With CCCn1c(C(CO)Nc2nc(C)cs2)nc2ccccc21 (stereo unspecified) the “activity change, negative = inhibition” value was inactive: -0.139%. For O=C(NCCc1ccccc1)c1noc2c1CCCCC2, the activity change, negative = inhibition was inconclusive: -22.1%. In the case of CCc1ccccc1SCc1noc(C(=O)NCC2CCCO2)c1C(=O)O (stereo unspecified), the activity change, negative = inhibition is reported as inconclusive: 0.0169%. In the case of c1coc(CSc2ncnc3c2oc2ccccc23)c1, the activity change, negative = inhibition is reported as inconclusive: 10.1%. In the case of COc1ccccc1CNc1nc2nc(C)c(C)c(=O)n2[nH]1, the Potency is reported as inconclusive: 29.1 µM [falling, single point]. In the case of O=S(=O)(Cc1ccc(Cl)cc1)N1CCCCCC1, the activity change, negative = inhibition is reported as inconclusive: 9.5%. In the case of CCCCN1C(=O)/C(=C2/C=CC=CN2C)SC1=S, the activity change, negative = inhibition is reported as inconclusive: 1.96%. In the case of O=C(CCCN1CCC(C(=O)c2ccc(F)cc2)CC1)c1ccc(F)cc1, the “activity change, negative = inhibition” value is reported as inactive: 0%. In the case of Cc1ccc(C(=O)N2CCN(c3ccccc3)CC2)cc1C, the “activity change, negative = inhibition” value is reported as inactive: 3.6%. For Cc1ccc(N2C(=O)N(CC(=O)Nc3cccc(C)c3C)C(=O)C2C)cc1 (stereo unspecified), the activity change, negative = inhibition was inconclusive: 14.5%. For COc1cccc(/C=C2\SC(=O)N(CC(=O)NC3C=CS(=O)(=O)C3)C2=O)c1 (stereo unspecified), the Potency was inconclusive: 15.8 µM [falling, partial curve]. With O=C(NCc1ccccc1)c1nncc(-c2ccccc2)n1 the Potency was inconclusive: 16.4 µM [falling, single point]. With Cn1ncc([N+](=O)[O-])c1C(=O)Nc1ccc(-c2nc3ccccc3[nH]2)cc1 the activity change, negative = inhibition was inconclusive: 19.1%. For O=C(/C=C/c1cccs1)c1ccc(N2CCOCC2)cc1, the activity change, negative = inhibition was inconclusive: -25.2%. For CCCN1Cc2cccc(C(=O)NCCc3cccc(C)c3)c2C1=O, the “activity change, negative = inhibition” value was inactive: 4.45%. With N#C/C(=C(/O)CCl)c1nc2ccccc2[nH]1 the Potency was inconclusive: 35.5 µM [falling, single point]. With COCCn1c(C23CC4CC(CC(C4)C2)C3)n[nH]c1=S the activity change, negative = inhibition was inconclusive: -4.39%. In the case of COc1ccccc1N1C(C)=CC(=C(C#N)c2nc3ccccc3s2)C=C1C, the Potency is reported as inconclusive: 20.6 µM [falling, single point]. With CC(=O)N(c1ccc2oc(=O)sc2c1)S(=O)(=O)c1ccccc1 the Potency was inconclusive: 12.6 µM [falling, single point]. With CCN1CCN(CCCNC(=O)c2ccc3c(Cl)c4c(nc3c2)CCCC4)CC1 the Potency was inconclusive: 17.8 µM [falling, partial curve, poor fit]. With O=C(NC1CCCC1)c1ccc(S(=O)(=O)N2CCOCC2)cc1 the activity change, negative = inhibition was inconclusive: -16.9%. In the case of COc1ccc(/C=N/NC(=O)c2nn(-c3ccccc3)c(=O)c3c(N)scc23)cc1, the “activity change, negative = inhibition” value is reported as inactive: 1.32%.
